Measurements taken from paper doi:10.1101/2020.11.11.378323.
No constants are given. Whether binding was seen depends on the method and setting. For some of these results: Binding can be weak; no strength is given.

Chains of the proteins cited; added tags and fusions are not shown.
UniProt P19538: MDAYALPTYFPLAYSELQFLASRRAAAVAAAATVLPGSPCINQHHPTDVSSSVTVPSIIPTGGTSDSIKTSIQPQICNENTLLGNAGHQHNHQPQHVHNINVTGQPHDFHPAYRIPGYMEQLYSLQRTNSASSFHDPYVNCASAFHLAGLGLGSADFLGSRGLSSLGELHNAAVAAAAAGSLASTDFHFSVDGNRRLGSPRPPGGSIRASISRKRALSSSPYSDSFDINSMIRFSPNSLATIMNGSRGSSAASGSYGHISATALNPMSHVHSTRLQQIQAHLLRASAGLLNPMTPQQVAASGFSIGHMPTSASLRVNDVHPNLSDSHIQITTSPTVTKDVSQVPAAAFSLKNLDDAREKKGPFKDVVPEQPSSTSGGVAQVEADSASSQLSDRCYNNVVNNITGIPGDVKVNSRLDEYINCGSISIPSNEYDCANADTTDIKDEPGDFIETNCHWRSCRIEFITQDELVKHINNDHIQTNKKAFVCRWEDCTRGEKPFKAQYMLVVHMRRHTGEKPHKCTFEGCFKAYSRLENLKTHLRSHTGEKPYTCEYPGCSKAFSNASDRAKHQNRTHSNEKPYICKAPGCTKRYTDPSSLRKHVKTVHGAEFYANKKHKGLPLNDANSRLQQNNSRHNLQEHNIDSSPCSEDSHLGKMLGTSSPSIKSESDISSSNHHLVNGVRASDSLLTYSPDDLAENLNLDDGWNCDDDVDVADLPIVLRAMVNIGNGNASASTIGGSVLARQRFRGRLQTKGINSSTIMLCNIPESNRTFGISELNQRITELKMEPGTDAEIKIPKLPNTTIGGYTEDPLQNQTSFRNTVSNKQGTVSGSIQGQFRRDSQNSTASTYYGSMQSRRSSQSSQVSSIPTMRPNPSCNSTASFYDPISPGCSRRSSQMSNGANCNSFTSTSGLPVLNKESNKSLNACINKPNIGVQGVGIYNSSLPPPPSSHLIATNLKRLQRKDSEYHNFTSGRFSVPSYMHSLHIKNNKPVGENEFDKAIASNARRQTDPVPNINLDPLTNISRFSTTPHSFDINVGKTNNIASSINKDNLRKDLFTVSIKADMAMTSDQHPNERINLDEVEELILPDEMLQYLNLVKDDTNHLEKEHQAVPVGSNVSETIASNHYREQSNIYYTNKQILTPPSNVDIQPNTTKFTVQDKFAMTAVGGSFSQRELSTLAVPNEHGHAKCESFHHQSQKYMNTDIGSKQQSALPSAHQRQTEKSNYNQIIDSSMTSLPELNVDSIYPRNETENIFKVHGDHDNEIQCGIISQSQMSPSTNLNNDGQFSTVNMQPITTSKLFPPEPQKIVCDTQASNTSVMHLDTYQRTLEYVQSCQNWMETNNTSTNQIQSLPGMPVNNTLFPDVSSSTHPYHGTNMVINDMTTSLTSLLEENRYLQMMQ
UniProt P07247: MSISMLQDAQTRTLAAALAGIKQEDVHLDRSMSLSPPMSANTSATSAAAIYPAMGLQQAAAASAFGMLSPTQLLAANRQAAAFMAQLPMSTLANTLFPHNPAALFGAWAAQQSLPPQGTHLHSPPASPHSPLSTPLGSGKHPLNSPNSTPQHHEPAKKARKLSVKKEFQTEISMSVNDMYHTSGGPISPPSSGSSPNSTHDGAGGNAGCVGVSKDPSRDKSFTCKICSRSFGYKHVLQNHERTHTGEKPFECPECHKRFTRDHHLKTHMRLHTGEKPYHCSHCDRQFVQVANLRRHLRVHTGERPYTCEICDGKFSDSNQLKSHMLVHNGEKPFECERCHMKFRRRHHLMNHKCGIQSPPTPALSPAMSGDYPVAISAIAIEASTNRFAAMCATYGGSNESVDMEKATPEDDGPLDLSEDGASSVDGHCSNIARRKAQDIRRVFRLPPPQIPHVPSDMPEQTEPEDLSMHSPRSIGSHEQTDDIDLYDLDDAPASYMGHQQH
UniProt P23803: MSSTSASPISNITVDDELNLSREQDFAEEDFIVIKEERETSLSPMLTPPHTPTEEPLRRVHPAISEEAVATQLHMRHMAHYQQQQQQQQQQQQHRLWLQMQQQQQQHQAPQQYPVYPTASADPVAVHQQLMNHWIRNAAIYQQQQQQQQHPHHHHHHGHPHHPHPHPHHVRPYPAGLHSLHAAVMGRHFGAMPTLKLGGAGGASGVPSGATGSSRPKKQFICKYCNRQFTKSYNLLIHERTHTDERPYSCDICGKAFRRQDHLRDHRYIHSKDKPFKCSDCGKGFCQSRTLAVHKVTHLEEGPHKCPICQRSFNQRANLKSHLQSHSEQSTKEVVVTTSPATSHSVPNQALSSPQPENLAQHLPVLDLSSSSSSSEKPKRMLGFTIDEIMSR

What was measured:
Assay in all cases: two-hybrid
[1] = target: T1, male-specific lethal (MSL)1 (Drosophila) (UniProt P50535)
T1 sequence: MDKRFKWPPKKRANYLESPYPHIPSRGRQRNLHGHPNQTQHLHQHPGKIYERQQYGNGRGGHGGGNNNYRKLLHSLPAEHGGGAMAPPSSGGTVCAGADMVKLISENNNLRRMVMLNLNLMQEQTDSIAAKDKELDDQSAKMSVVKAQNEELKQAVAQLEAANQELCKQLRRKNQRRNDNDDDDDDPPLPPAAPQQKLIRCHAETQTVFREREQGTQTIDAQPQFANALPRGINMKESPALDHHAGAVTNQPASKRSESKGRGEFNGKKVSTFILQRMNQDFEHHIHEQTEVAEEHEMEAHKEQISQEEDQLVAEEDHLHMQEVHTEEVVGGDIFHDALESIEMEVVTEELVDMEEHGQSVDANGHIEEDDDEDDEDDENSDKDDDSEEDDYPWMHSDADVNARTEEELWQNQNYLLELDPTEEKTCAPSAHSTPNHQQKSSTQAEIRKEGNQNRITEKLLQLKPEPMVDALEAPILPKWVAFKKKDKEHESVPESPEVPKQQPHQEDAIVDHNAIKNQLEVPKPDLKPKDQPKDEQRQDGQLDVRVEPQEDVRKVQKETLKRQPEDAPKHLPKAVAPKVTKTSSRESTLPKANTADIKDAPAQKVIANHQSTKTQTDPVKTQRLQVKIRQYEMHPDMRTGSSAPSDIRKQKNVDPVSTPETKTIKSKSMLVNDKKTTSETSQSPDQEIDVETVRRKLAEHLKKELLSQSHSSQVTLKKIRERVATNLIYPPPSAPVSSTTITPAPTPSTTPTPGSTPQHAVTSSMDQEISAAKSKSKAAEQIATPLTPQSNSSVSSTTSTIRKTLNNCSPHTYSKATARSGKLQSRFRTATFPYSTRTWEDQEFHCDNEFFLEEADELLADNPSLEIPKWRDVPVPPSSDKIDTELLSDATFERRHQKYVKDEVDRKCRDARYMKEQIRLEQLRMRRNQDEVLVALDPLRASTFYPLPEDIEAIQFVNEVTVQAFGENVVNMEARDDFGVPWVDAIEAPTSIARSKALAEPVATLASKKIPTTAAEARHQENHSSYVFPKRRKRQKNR

[2] = target: 178-aa N-terminal region of MSL1 with the N-terminal 15-aa region deleted (Drosophila) (UniProt P50535)
[3] = target: T2, 178-aa N-terminal region of MSL1 (Drosophila) (UniProt P50535)
T2 sequence: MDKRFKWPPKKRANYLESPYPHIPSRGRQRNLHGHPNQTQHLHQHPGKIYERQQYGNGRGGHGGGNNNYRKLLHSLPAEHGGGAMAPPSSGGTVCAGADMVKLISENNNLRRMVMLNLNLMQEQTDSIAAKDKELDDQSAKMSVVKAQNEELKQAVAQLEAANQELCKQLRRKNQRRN

Substance | binding [1] | binding [2] | binding [3]
CG30020 (Drosophila) | binds | – | –
Ci (from UniProt P19538 1-1397) | – | no binding | –
Jim (Drosophila) | binds | – | –
Kruppel (from UniProt P07247 1-502) | – | no binding | –
Odd (from UniProt P23803 1-392) | – | no binding | –
Row (Drosophila) | binds | – | binds
